PubChem BioAssay AID652243 | Drosophila RNAi Screening Center – 2013
The screen tested about 24,000 reagents; this is an unselected part of those with a known target gene and a result. Of all reagents, 246 (1%) got an active call. 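Plates not normalised; calls are printed but the firefly/Renilla ratio behind them is not deposited; fold cut for lowering reported inconsistently.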 Raw values are not corrected between plates. The numbers tell different reagents against one gene apart. Names joined by + are all predicted targets of the reagent. Reagent sequences are not shown. Not stated in the record: the amount of reagent.

Assay: 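Knock-downs that decrease or increase androgen receptor reporter signal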 (primary screen)
Cell system: Drosophila S2R+ cells
Reagents: long dsRNA against Drosophila genes
Timing: 72 h (48 h, then 24 h hormone)
Conditions: synthetic androgen R1881 at 10 nM for 24 h
Measurement: 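Per-well raw luminescence of the androgen-driven firefly reporter and of the Renilla control, two replicates each, without normalisation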
Reading the numbers: firefly reporter light: higher = more light from androgen-responsive reporter; Renilla control light: higher = more constitutive control signal (cell number, transfection)
Active means: 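Across duplicate plates, a knock-down whose log firefly/Renilla ratio shifted a set fold down or up from the GFP/LacZ control mean was a hit; the downward cut appears as both 1.5 and 3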
Calls: active = hit: reporter lowered or raised; inactive = no hit

The first 3 records, ahead of the listing:
| target gene | reagent | firefly reporter light, replicate 1 | firefly reporter light, replicate 2 | Renilla control light, replicate 1 | Renilla control light, replicate 2 | outcome |
| --- | --- | --- | --- | --- | --- | --- |
| CG14695 | 1 | 1.38e5 | 1.90e5 | 1.54e6 | 2.20e6 | inactive |
| CG17752 | 1 | 2.86e5 | 3.44e5 | 3.20e6 | 3.81e6 | inactive |
| CG17752 | 2 | 2.97e5 | 2.75e5 | 6.36e5 | 5.55e5 | inactive |

The list itself, from the start:
| target gene | reagent | firefly reporter light, replicate 1 | firefly reporter light, replicate 2 | Renilla control light, replicate 1 | Renilla control light, replicate 2 | outcome |
| --- | --- | --- | --- | --- | --- | --- |
| CG14695 | 1 | 1.38e5 | 1.90e5 | 1.54e6 | 2.20e6 | inactive |
| CG17752 | 1 | 2.86e5 | 3.44e5 | 3.20e6 | 3.81e6 | inactive |
| CG17752 | 2 | 2.97e5 | 2.75e5 | 6.36e5 | 5.55e5 | inactive |
| RecQ5 (RecQ5 helicase) | 1 | 1.38e6 | 1.10e6 | 2.16e6 | 2.39e6 | inactive |
| CG12702 | 1 | 2.26e5 | 23813 | 8.00e5 | 1.03e5 | inactive |
| CG12702 | 2 | 2.44e5 | 2.69e5 | 6.08e5 | 7.91e5 | inactive |
| CG13473 | 1 | 8.73e5 | 7.51e5 | 9.40e5 | 1.01e6 | inactive |
| Lnk | 1 | 91772 | 1.37e5 | 4.15e5 | 6.64e5 | inactive |
| DppIII (Dipeptidyl aminopeptidase III) | 1 | 1.00e5 | 1.19e5 | 1.66e6 | 1.68e6 | inactive |
| DppIII (Dipeptidyl aminopeptidase III) | 2 | 2.05e5 | 1.72e5 | 3.97e5 | 6.97e5 | inactive |
| CG42634 + CG42635 | 1 | 1.98e5 | 1.72e5 | 1.72e6 | 2.14e6 | inactive |
| CG15536 | 1 | 7.08e5 | 8.93e5 | 2.01e6 | 1.76e6 | inactive |
| CG15536 | 2 | 7.57e5 | 1.22e6 | 7.21e5 | 9.06e5 | inactive |
| CG15536 | 3 | 4.89e5 | 4.31e5 | 2.68e5 | 4.62e5 | inactive |
| CG13930 | 1 | 78389 | 63013 | 8.21e5 | 8.25e5 | inactive |
| CG13930 | 2 | 6.45e5 | 9.61e5 | 8.81e5 | 9.83e5 | inactive |
| su(f) (suppressor of forked) | 1 | 1.61e5 | 2.32e5 | 6.21e5 | 3.22e5 | inactive |
| CG13250 | 1 | 3.63e5 | 2.21e5 | 2.61e6 | 2.25e6 | inactive |
| CG13250 | 2 | 2.69e5 | 2.84e5 | 4.13e5 | 7.66e5 | inactive |
| Usf | 1 | 1.87e5 | 1.25e5 | 3.23e6 | 2.43e6 | inactive |
| Usf | 2 | 5.11e5 | 2.89e5 | 9.88e5 | 3.27e5 | inactive |
| ave (aveugle) | 1 | 1.25e5 | 1.79e5 | 3.24e5 | 3.88e5 | inactive |
| ave (aveugle) | 2 | 9.79e5 | 1.18e6 | 1.26e6 | 2.08e6 | inactive |
| Surf4 (Surfeit 4) | 1 | 1.37e5 | 1.63e5 | 1.69e6 | 2.21e6 | inactive |
| Past1 (Putative Achaete Scute Target 1) | 1 | 42962 | 84259 | 1.26e6 | 1.43e6 | inactive |
| Ndf (Nucleosome-destabilizing factor) | 1 | 8.51e5 | 1.05e6 | 1.26e6 | 1.51e6 | inactive |
| CG4730 | 1 | 1.72e5 | 2.10e5 | 2.09e6 | 2.14e6 | inactive |
| CG4730 | 2 | 9.04e5 | 7.55e5 | 9.11e5 | 1.07e6 | inactive |
| CheB53a (Chemosensory protein B 53a) | 1 | 83392 | 1.02e5 | 1.19e6 | 1.19e6 | inactive |
| Adgf-C (Adenosine deaminase-related growth factor C) | 1 | 48872 | 74303 | 1.87e6 | 2.22e6 | inactive |
| Adgf-C (Adenosine deaminase-related growth factor C) | 2 | 4.87e5 | 4.14e5 | 7.89e5 | 5.18e5 | inactive |
| CG4502 | 1 | 7.29e5 | 6.28e5 | 1.29e6 | 1.07e6 | inactive |
| ebo (ellipsoid body open) | 1 | 75356 | 52356 | 6.57e5 | 4.55e5 | inactive |
| ebo (ellipsoid body open) | 2 | 3.89e5 | 3.26e5 | 1.81e6 | 1.37e6 | inactive |
| tef (teflon) | 1 | 7.83e5 | 5.76e5 | 7.85e5 | 6.38e5 | inactive |
| tef (teflon) | 2 | 6.30e5 | 6.53e5 | 2.75e6 | 2.25e6 | inactive |
| tef (teflon) | 3 | 3.69e5 | 3.30e5 | 8.34e5 | 4.07e5 | inactive |
| Skp2 + CG14645 | 1 | 82357 | 1.50e5 | 2.23e6 | 1.53e6 | inactive |
| Cmtr1 (Cap methyltransferase 1) | 1 | 1.65e5 | 1.70e5 | 2.02e6 | 1.89e6 | inactive |
| Cmtr1 (Cap methyltransferase 1) | 2 | 3.40e5 | 2.62e5 | 5.06e5 | 7.08e5 | inactive |
| PTPMT1 (Protein tyrosine phosphatase, mitochondrial 1) | 1 | 1.32e5 | 1.76e5 | 1.90e6 | 2.29e6 | inactive |
| CG30385 | 1 | 3.46e5 | 2.94e5 | 1.60e6 | 1.65e6 | inactive |
| slgA (sluggish A) | 1 | 95699 | 63421 | 4.07e5 | 5.19e5 | inactive |
| slgA (sluggish A) | 2 | 5.45e5 | 2.69e5 | 5.74e5 | 4.23e5 | inactive |
| CG4815 | 1 | 2.13e5 | 2.10e5 | 1.99e6 | 3.31e6 | inactive |
| CG32436 | 1 | 1.31e5 | 1.82e5 | 1.37e6 | 1.85e6 | inactive |
| CG32436 | 2 | 1.89e5 | 1.92e5 | 1.54e6 | 1.50e6 | inactive |
| Pburs (Partner of Bursicon) | 1 | 1.44e5 | 1.33e5 | 1.87e6 | 1.57e6 | inactive |
| CG16826 | 1 | 2.16e5 | 2.24e5 | 1.24e6 | 1.30e6 | inactive |
| SsRbeta (Signal sequence receptor beta) | 1 | 25713 | 39615 | 5.57e5 | 4.32e5 | inactive |
| Bcat (Branched chain amino acid transaminase) | 1 | 5.94e5 | 7.09e5 | 3.57e6 | 4.06e6 | inactive |
| Bcat (Branched chain amino acid transaminase) | 2 | 3.71e5 | 6.87e5 | 1.50e6 | 2.18e6 | inactive |
| tank | 1 | 65423 | 54650 | 5.38e5 | 4.46e5 | inactive |
| LIMK1 (LIM domain kinase 1) | 1 | 1.11e5 | 93769 | 7.01e5 | 7.61e5 | inactive |
| LIMK1 (LIM domain kinase 1) | 2 | – | – | – | – | inactive |
| LIMK1 (LIM domain kinase 1) | 3 | – | – | – | – | inactive |
| Shaw (Shaker cognate w) | 1 | 1.33e5 | 53392 | 1.27e6 | 1.09e6 | inactive |
| Shaw (Shaker cognate w) | 2 | 5.45e5 | 4.88e5 | 3.78e6 | 3.08e6 | inactive |
| Shaw (Shaker cognate w) | 3 | 8.51e5 | 8.05e5 | 1.92e6 | 1.64e6 | inactive |
